Assay results as given in PubChem BioAssay AID504648 (National Center for Advancing Translational Sciences (NCATS), 2011).
About 610 (0.16%) of roughly 390,000 compounds were called active. Inconclusive results, whose numbers are uncertain, are shown with a selection of clear calls. The call rests on the fitted dose curve; in most records, active means well fitted inhibition curve with a large enough effect; inconclusive means small, poorly fitted or top-dose-only effect, or effect the other way, or another doubt; inactive means no such curve, though single readings can be large or run the other way. A potency beside an inconclusive call is a rough fit, not a confirmed value.

Test: Nrf2 qHTS screen for inhibitors: counterscreen for cytotoxicity
Settings: A549 ARE-Fluc cells, CellTiter-Fluor viability, 18-24 h; series mostly up to 46 µM
Procedure, shortened: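 A549 ARE-Fluc cells in 5% FBS OPTI-MEM, 5000 cells/well, rested 2 h then exposed to compounds in concentration-response for 18-24 h at 37 °C. Viability by CellTiter-Fluor fluorescence (Ex 405/Em 525) after 30 min; luciferase luminescence (BugLite, 15 min, RT) read afterwards.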
Potency means the concentration at half of the fitted maximal effect.

Structure (SMILES)	Potency
COc1ccc(CN(CC(O)COCc2ccccc2)S(=O)(=O)c2ccccc2Br)cc1OC (configuration not stated)	inconclusive: 29.1 µM [falling, partial curve, poor fit]
CC1CCN(CCNC(=O)c2ccc(Cn3c(SCc4ccccc4)nc4cccnc43)cc2)CC1	inconclusive: 23.1 µM [falling, partial curve]
Cc1oc(-c2cc(F)ccc2F)nc1CN1CCC(C(=O)N2CCOCC2)CC1	inactive
O=C(CSc1nnc(-c2ccncc2)n1Cc1ccco1)Nc1nc(-c2ccccc2)cs1	inconclusive: 16.4 µM [falling, partial curve]
Cc1ccc(-n2ncc(C(=O)N3CCN(Cc4ccccc4)CC3)c2C2CCN(C(=O)OC(C)(C)C)CC2)c(C)c1	inactive
COC(=O)c1nn(-c2ccccc2)c(Cl)c1/C=N/OCc1ccc(C)cc1	inconclusive: 25.9 µM [activator, single point]
CCSc1nnc(NC(=O)C(CC)(C(F)(F)F)C(F)(F)F)s1	inconclusive: 32.6 µM [falling, single point]
C=C[C@@H]1[C@@H](C)[C@H](C)C(=O)C([C@H](O)C(C)C)[C@@H]1C (some centres not stated)	inactive
COc1ccc(C)cc1NC(=O)C1CCCN(S(=O)(=O)c2cccc3nonc23)C1 (configuration not stated)	inactive
CC1(c2ccccc2)CC(C)(C)N2C(=O)C3(C(C#N)=C(N)Oc4cc(O)ccc43)c3cccc1c32 (configuration not stated)	inconclusive: 29.1 µM [falling, single point]
O=C1C=CC(=O)N1c1ccc(N2CCCCC2)cc1	inconclusive: 29.1 µM [falling, partial curve, poor fit]
Cc1ccc(Nc2nc(N/N=C/c3c[nH]c4ccccc34)nc(N3CCOCC3)n2)cc1	inconclusive: 2.59 µM [activator, partial curve, poor fit]
Cc1cc(NC(=O)C2CCCCC2)n(-c2nc3ccccc3[nH]2)n1	inconclusive: 23.1 µM [falling, partial curve, poor fit]
Cc1ccc2c(Cl)cc(Cl)c(OCC(=O)NC(C)(C)C)c2n1	inactive
CC(Nc1ccc(Br)cc1)C(=O)N/N=C/c1ccccc1OCc1ccccc1 (configuration not stated)	inconclusive: 29.1 µM [falling, single point]
Cc1cccc(C)c1NC(=S)NCCSc1ccc(Cl)cc1	inconclusive: 29.1 µM [falling, single point]
Cc1ccc(C)c(/C=C/C(=O)c2ccccc(=O)c2O)c1	inconclusive: 18.4 µM [falling, single point]
CCCCNc1c(-c2ccc(OC)c(SC(C)CC)c2)nc2ccc(C)cn12 (configuration not stated)	inconclusive: 29.1 µM [falling, single point]
C=CCNc1nnc(Cc2ccc(C(C)C)cc2)c(=O)[nH]1	inactive
O=C(/C=C/c1cc(Br)ccc1F)OCC(=O)N1CCCC1	inactive
CCCCCCCNC(=O)C1(CC2CC(c3ccc(Cl)cc3)=NO2)CCNCC1 (configuration not stated)	inconclusive: 4.11 µM [activator, partial curve, poor fit]

Structure (SMILES)	Potency
Cc1c(C(=O)N(C)c2cccc(C(F)(F)F)c2)sc2nc3n(c(=O)c12)CCCCC3	inconclusive: 13 µM [activator, partial curve]
COc1ccc(NCc2nnc(SCC(=O)N3CCCc4ccccc43)o2)cc1	inactive
CC1Sc2ccc(S(=O)(=O)CCC(=O)N3CCN(c4cccc(Cl)c4)CC3)cc2NC1=O (configuration not stated)	inconclusive: 23.1 µM [falling, partial curve, poor fit]
COC(=O)/C(=C1/Oc2cc(C)oc(=O)c2S1)C(F)(F)F	inconclusive: 29.1 µM [falling, single point]
Nc1c(C(=O)Nc2ccc(Br)cc2)sc2nc(-c3ccco3)ccc12	inconclusive: 2.91 µM [activator, partial curve, poor fit]
COc1cccc(/C=N/NC(=O)CSCC(=O)Nc2ccccc2)c1O	inactive
COc1cc(NC(=S)N2CCC(C(N)=O)CC2)cc(OC)c1	inconclusive: 8.2 µM [activator, partial curve, poor fit]
CCc1cccc(NCc2ccccc2-c2nnc(-c3ccccc3Cl)o2)c1	inactive
CCC(C(=O)NC1CCCCCC1)n1nc(C)c2c(C)n(-c3ccccc3)nc2c1=O (configuration not stated)	inactive
CCC(c1nnnn1Cc1ccco1)N(CCc1ccccc1)Cc1cc2ccc(OC)cc2[nH]c1=O (configuration not stated)	inconclusive: 10.3 µM [falling, partial curve, poor fit]
O=C(N/N=C/c1cccnc1)c1cc(-c2ccc(Br)cc2)nc2ccccc12	inactive
O=C(NNC(=O)c1ccc(SCC2CCCO2)c([N+](=O)[O-])c1)c1ccc(Cl)c([N+](=O)[O-])c1 (configuration not stated)	inconclusive: 29.1 µM [falling, single point]
COc1ccc(C(C(=O)NC(C)(C)C)N(CCc2ccccc2)C(=O)CCC(=O)Nc2cc(C)on2)cc1 (configuration not stated)	inconclusive: 29.1 µM [falling, single point]
CCOc1ccc2c(c1)sc(N)[n+]2Cc1cc(C)cc2cccnc12	inconclusive: 9.2 µM [falling, partial curve]
O=C(CCn1nnc2ccccc2c1=O)NCC1CCC(C(=O)O)CC1 (configuration not stated)	inconclusive: 29.1 µM [activator, single point]
COc1cc(/C=N/NC(=O)c2ccccc2O)ccc1OCC(=O)Nc1ccccc1	inactive
CN(C)CCn1c(=N)n(CC(O)c2ccc(Cl)c(Cl)c2)c2ccccc21 (configuration not stated)	inconclusive: 9.2 µM [falling, partial curve]
CCOC(=O)c1cc(NC(=O)c2cccnc2)cc(C(=O)OCC)c1	inconclusive: 11.6 µM [activator, partial curve, poor fit]
COc1ccc(S(=O)(=O)N2CCN(C(=O)c3cc4c(s3)CCCC4)CC2)cc1	inactive
Cc1ccc(S(=O)(=O)/N=C2/NC(=O)/C(=C/c3cc([N+](=O)[O-])ccc3O)S2)cc1	inconclusive: 18.4 µM [falling, single point]
Cc1cc(/C=C\c2ccc3cc(N(C)C)ccc3[n+]2C)c(C)n1-c1ccccc1	active: 5.8 µM
